Reference: PubChem BioAssay AID2685 (National Center for Advancing Translational Sciences (NCATS), 2010)
Screen size: about 320,000 compounds; about 2,100 (0.66%) were called active. Inconclusive means that the source gave no clear call. Such entries were picked first, then a sample of the others. Calls come from the whole dose curve; as a rule, active = well fitted inhibition curve with a large enough effect in the signal ratio, with a control signal flat (not every such curve was filed as active); inconclusive = small, poorly fitted or top-dose-only effect, or effect the other way, or a change in a side signal; inactive = flat fitted curve, though single readings scatter; the % refers to the signal ratio. A potency beside an inconclusive call is a rough fit, not a confirmed value.

Assay: qHTS Assay for Lipid Storage Modulators in Drosophila S3 Cells
Settings: BODIPY lipid droplet fluorescence, 18-24 h, cells fed with added oleic acid; lipid storage change, negative = inhibition: at 46.1 µM (top of the series) unless noted
Outline: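 Laser-scanning cytometry quantifies lipid droplet accumulation (500–530 nm total intensity; droplet/cell object ratio) in oleic acid-fed (400 uM added) Drosophila S3 cells treated with a concentration series. 20 uM Triacsin C defined 100% inhibition.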
% is set by controls: 0 for no effect and ±100 for the full control effect; potency is the fitted concentration of half-maximal effect.

Compound | lipid storage change, negative = inhibition | Potency
COc1ccccc1CCNC(=O)C(=O)c1cn(CC(=O)N2CCOCC2)c2ccccc12 | inconclusive: -59.3% | –
Cc1cc(C)n(-c2ncnc3c2oc2ccccc23)n1 | inconclusive: 16.6% | –
COc1ccc(CNC(=O)CCCn2c(=S)[nH]c3cc4c(cc3c2=O)OCO4)cc1 | – | inconclusive: 20.6 µM [rising, partial curve]
CCCCCOC(=O)C1=C(C)NC(=O)NC1c1ccc([N+](=O)[O-])cc1 (centres undefined) | inconclusive: -16.9% | –
O=c1ccc2cc(S(=O)(=O)Nc3ccccc3F)ccc2o1 | inconclusive: 63.7% | –
C=CCn1c(SCC(=O)NNC(=S)Nc2ccccc2)nnc1-c1ccccc1 | inconclusive: 24.5% | –
CCN(CC)S(=O)(=O)c1ccc(NN=C2CCN(C(C)C)CC2)c([N+](=O)[O-])c1 | inactive | –
O=C1CC(=O)c2c1cccc2[N+](=O)[O-] | – | inconclusive: 0.116 µM [falling, full curve, poor fit]
O=c1[nH]c(CN2CCCC2)nc2sc3c(c12)CCC3 | inconclusive: -28.2% | –
CCOC(=O)c1sc(NC(=O)CN(CC(C)C)CC(C)C)c(C(=O)OCC)c1C | – | inconclusive: 2.59 µM [activator, full curve]
COc1ccc(-n2c(=O)[nH]cc(C(=O)Nc3ccc4c(c3)OCCO4)c2=O)cc1OC | – | inconclusive: 3.26 µM [activator, single point]
O=C(Nc1cc2c3c(c1)CC(=O)N3CCC2)c1ccccc1C(F)(F)F | inconclusive: -34.3% [at 0.0737 µM] | –
CCOc1ccc(NC(=O)Cn2sc3nc(C)cc(C)c3c2=O)cc1 | inconclusive: -100% | –
CC(=O)N[C@@H](Cc1c[nH]c2ccccc12)C(=O)NC1CC1 | inconclusive: 299% | –
CCN(CC)CC(O)COCCC12CC3CC(CC(C3)C1)C2 (centres undefined) | – | inconclusive: 8.2 µM [falling, partial curve]
CC(C)COc1cccc(C(=O)N(CC(=O)Nc2ccccc2C(F)(F)F)Cc2ccco2)c1 | inconclusive: -58.2% | –
O=[N+]([O-])C(=C1NCCN1)C(Cl)=C(Cl)Cl | inconclusive: -19.7% | –
CCOC(=O)c1c(NC(=O)CSc2nncs2)sc(C)c1-c1ccccc1 | inconclusive: -28.1% | –
Cc1cccc(CNc2ncnc3ccc(-c4ccccc4Cl)cc23)c1 | inconclusive: 4.13% | –
COc1ccc(CN2C(=O)c3ccccc3C2C(=O)NCc2cccnc2)c(OC)c1 (centres undefined) | inconclusive: 30% | –
Nc1c(C(=O)NCCc2ccccc2)sc2nc(N3CCOCC3)c3c(c12)CCCC3 | inconclusive: 28.4% | –
CCOc1ccccc1NC(=O)C(=O)CC(=O)c1ccc(OC)cc1 | inconclusive: -25.2% | –
Cc1cccc(-c2noc(CCc3ccccc3)n2)c1 | inconclusive: 34.8% | –
CC(C)n1nnnc1SCC(=O)Nc1ccccc1F | inconclusive: -2.35% | –
O=C(CN1CCOCC1)Nc1nc2ccc(Cl)cc2s1 | – | inconclusive: 0.116 µM [activator, full curve, poor fit]

A second format for three compounds above:
Nc1c(C(=O)NCCc2ccccc2)sc2nc(N3CCOCC3)c3c(c12)CCCC3
  lipid storage change, negative = inhibition: inconclusive: 28.4%
CCOc1ccccc1NC(=O)C(=O)CC(=O)c1ccc(OC)cc1
  lipid storage change, negative = inhibition: inconclusive: -25.2%
Cc1cccc(-c2noc(CCc3ccccc3)n2)c1
  lipid storage change, negative = inhibition: inconclusive: 34.8%

Next structures follow.

Compound | lipid storage change, negative = inhibition | Potency
COc1cc2c(cc1OC)CN(c1nc(-c3cccnc3)nc3ccccc13)CC2 | inactive | –
Cc1ccc2cccc(OCC(=O)Nc3cccc(S(=O)(=O)N4CCCC4)c3)c2n1 | inconclusive: 0.624% | –
CCn1cc([N+](=O)[O-])c(C(=O)N2N=C(c3ccc(OC)cc3OC)CC2c2ccccc2O)n1 (centres undefined) | inconclusive: 15% | –
Cc1c(Cl)cccc1NC(=S)NCCc1ccc(Cl)cc1 | – | inconclusive: 25.9 µM [falling, single point]
Cc1cc(C)c(NC(=S)N2CCC(N(C)CC3CCCO3)CC2)c(C)c1 (centres undefined) | – | active: 25.9 µM
C/C(=N\NC(=O)c1n[nH]c2c1CCC2)c1ccco1 | inconclusive: 39.5% | –
COc1ccc(-c2cc(C)no2)cc1S(=O)(=O)N(C)c1ccc(C)c(C)c1 | – | inconclusive: 29.1 µM [falling, single point]
O=C(Cc1ccc(S(=O)(=O)N2CCOCC2)s1)N1CCN(c2cccc(C(F)(F)F)c2)CC1 | – | inconclusive: 16.4 µM [falling, single point]
Cc1noc(C(=O)Nc2c(C)nn(Cc3ccccc3)c2C)c1Cl | – | inconclusive: 4.61 µM [cytotoxic, single point]
Cc1ccc(NC(=O)Nc2ccc3c(c2)nnn3C)cc1C | inconclusive: 121% | –
CC(/C=N/NC(=O)Cn1nnc(N)n1)=C\c1ccc(C(C)C)cc1 | inconclusive: -22% | –
CCn1c(=O)cc(OCC(=O)Nc2ccc(C)cn2)c2ccccc21 | inactive | –
O=C(c1ccc(F)cc1)N1CCC(N2CCOCC2)CC1 | inconclusive: 7.92% | –
O=C(Nc1ccccc1)Nc1cccc2cccnc12 | – | inconclusive: 0.326 µM [activator, full curve]
Cc1ccc(-c2nc3cnccn3c2Nc2ccccc2)o1 | inconclusive: 12.1% [at 9.22 µM] | –
CC(C)(C)Nc1nc(Cl)nc(Nc2ccccc2)n1 | inconclusive: -59.2% | –
CCSc1nnc(NC(=O)c2c(C)noc2C)s1 | – | inconclusive: 10 µM [falling, partial curve]
O=C(CSc1ccc(C(F)(F)F)cc1[N+](=O)[O-])Nc1ccccc1 | inconclusive: -1.35% | –
CC(C)Cn1c(=O)c2c(nc3n2CC(C)CN3Cc2ccccc2)n(C)c1=O (centres undefined) | – | inconclusive: 29.1 µM [falling, single point]
COC(=O)c1ccccc1NC(=O)CSc1nnc(C(C)NC(=O)c2ccc(Cl)cc2Cl)n1C (centres undefined) | – | inconclusive: 6.51 µM [rising, single point]
COc1ccc(OC)c(C(=O)CSc2nnc(-c3ccc(OC)c(OC)c3)o2)c1 | – | inconclusive: 29.1 µM [falling, single point]
O=C(c1cccc(Cl)c1)N(Cc1ccco1)C1CCS(=O)(=O)C1 (centres undefined) | – | inconclusive: 29.1 µM [activator, single point]
Cc1ccc(SCC(=O)OC(C)C(=O)NC2(C#N)CCCCC2)cc1 (centres undefined) | inconclusive: 69.1% | –
CC(C)(C)NCC(O)COCc1ccc(Cl)cc1 (centres undefined) | – | inconclusive: 0.0046 µM [falling, full curve, poor fit]
